Experimental data as given in US20160051536A1, “COMPOSITIONS TO ALLEVIATE PRESYSTEMIC METABOLISM OF OPIOIDS” (VIRGINIA COMMONWEALTH UNIVERSITY, priority 2013, published 2016).
For at least one compound, name, drawing or mass did not settle the structure.

System: UGT
Assay: Effect of inhibitors on buprenorphine-glucuronide formation in LS180 cells
Conditions: buprenorphine 10 μM, inhibitor 100 μM, 2 hours, vs control, p<0.05, n.d. = glucuronide not detected

SMILES: O=C(/C=C/C=C/c1ccc2c(c1)OCO2)N1CCCCC1 [piperine]
- formation of buprenorphine glucuronide: significantly decreased
